Test results: patent US20160201132A1, “GENE EXPRESSION BIOMARKERS OF LAQUINIMOD RESPONSIVENESS” (Teva Pharmaceutical Industries Ltd., priority 2013, published 2016)
Several values for one entry are separate records, joined by “and”; a condition that tells them apart may be missing. Identical values can stand only once. The source gives many values for each of these; only a part stands here.

Tested on: PBMC of RRMS patients
Test: Gene expression microarray analysis (HG-U133A-2) of PBMC from RRMS patients treated with LAQ, ancillary study to ALLEGRO
Assay type: in vivo, human
Text: The goal of this ancillary study was to characterize gene expression changes and corresponding biological mechanisms induced in PBMC of RRMS patients by LAQ treatment. According to ALLEGRO clinical trial inclusion criteria, 25 patients were randomly assigned to receive LAQ (n=13, age 38.8±2.3 years, female/male ratio: 8/5) or placebo (n=12, age 37.2±3.4 years, female/male ratio: 8/4).
Peripheral blood samples were obtained from RRMS patients at baseline before start of LAQ treatment or placebo, after 0, 1, 6 and 24 month of treatment (visit 0, 1, 6 and 7 according to ALLEGRO clinical trial protocol correspondently) for gene microarray analysis.
Briefly, 1) Peripheral blood mononuclear cells (PBMC) were obtained from RRMS patients that participated in ALLEGRO and were treated daily with 0.6 mg LAQ or placebo. PBMC were subjected for gene expression analysis (HU-133A-2-Affymatrix arrays) at baseline and at 1 and 6 months of LAQ treatment; 2) Data was analyzed by Partek Genomics Solution software. Most informative genes (MIGs) were defined as those that differentiated between groups with p<0.01. Gene functional annotation, enrichment and pathway analysis were performed by Ingenuity software. For each time point, genes that changed in placebo group were excluded from further analysis; and 3) Verification of LAQ related mechanism was performed by Western blot.
PBMC were extracted from 15 ml peripheral blood, separated by Ficoll-Hypaque gradient. Total RNA was extracted using both Trizol (Invitrogen, USA) and Phase-Lock-Gel columns (Eppendorf, Germany) including a DNase digestion step. RNA integrity was assessed by RNA Experion automated electrophoresis system (Bio-Rad Laboratories, Hercules, Calif.).
Probe synthesis using 3 μg total RNA, hybridization, detection, and scanning was performed according to the standard Affymetrix, Inc. USA protocols; cDNA was synthesized using the Two-Cycle cDNA Synthesis Kit (Affymetrix, Inc., USA), and in-vitro transcription performed with the GeneChip IVT Labeling Kit (Affymetrix, Inc., USA). The biotin-labeled IVT-RNA was hybridized to HG-U133A-2 arrays containing 18,400 gene transcripts, each corresponding to 14,500 well-annotated human genes, washed in a GeneChip Fluidics Station 450 (Hewlett Packard, USA, GeneArray-™ scanner G2500A) and scanned according to the manufacturer's protocol (Affymetrix, Inc., USA).
Data analysis was performed on Partek Genomics Solution software (www.partek.com; Partek Incorporated, St. Louis, Mo.). Expression values were computed from raw CEL files by applying the Robust Multi-Chip Average (RMA) background correction algorithm. RMA correction included: 1) values background correction; 2) quintile normalization; 3) log 2 transformation; and 4) median polish summarization. The ANOVA, Repeated Measures and correlation analysis implicated in Partek software ware applied to evaluate LAQ effects. Most informative genes MIGs were defined as those that differentiated between experimental groups with p<0.01. All p-values were calculated for False Discovery Rate (FDR) multiple test correction at p=0.05.
Additionally, significance of individual genes was tested by parametric T-test and non parametric Mann-Whitney test using Bootstrapping approach based on repeated permutations of the data with 5% FDR for multiple testing.
Gene functional annotation, enrichment, and pathway analyses to identify the leading biological pathways that operated under LAQ treatment were performed by Ingenuity Pathways Analysis software (www.ingenuity.com).
ANOVA analysis was used to compare PBMC gene expression after 1, 6 or 24 month of LAQ treatment with baseline gene expression.
For each time point inventors performed analysis source of variation in dataset. (FIG. 1). Age, gender and batch effects were considered as confounders regarding LAQ or Placebo related changes. For each time point genes associated with Placebo effect were evaluated and excluded from further analysis. […]

## CCN(C(=O)c1c(O)c2c(Cl)cccc2n(C)c1=O)c1ccccc1 [LAQ, 5-chloro-N-ethyl-4-hydroxy-1-methyl-2-oxo-N-phenyl-1,2-dihydroquinoline-3-carboxamide]
Gene PNPLA2, six months of treatment
  Fold-Change (4.0 vs. 0.0): −1.147
Gene PODNL1, after six months of LAQ
  Fold-Change (4.0 vs. 0.0): −1.132
Gene POFUT2, after six months of LAQ
  Fold-Change (4.0 vs. 0.0): −1.274
Gene POU1F1, PBMC, six months of LAQ treatment
  Fold-Change (4.0 vs. 0.0): −1.102
Gene PP14571, six months of treatment
  Fold-Change (4.0 vs. 0.0): −1.148
Gene PPAP2B, after six months of LAQ
  Fold-Change (4.0 vs. 0.0): −1.2452
Gene PPL, after six months of LAQ
  Fold-Change (4.0 vs. 0.0): −1.139
Gene PPP5C, after six months of LAQ
  Fold-Change (4.0 vs. 0.0): −1.261
Gene PRDM4, after six months of LAQ
  Fold-Change (4.0 vs. 0.0): −1.142
Gene PRDM5, PBMC, six months of LAQ treatment
  Fold-Change (4.0 vs. 0.0): −1.118
Gene PREX2, PBMC, six months of LAQ treatment
  Fold-Change (4.0 vs. 0.0): −1.118
Gene PRICKLE3, PBMC, six months of LAQ treatment
  Fold-Change (4.0 vs. 0.0): −1.121
Gene PRKAR1B, PBMC, six months of LAQ treatment
  Fold-Change (4.0 vs. 0.0): −1.118
Gene PRKCA, PBMC, six months of LAQ treatment
  Fold-Change (4.0 vs. 0.0): −1.122
Gene PRKD1, PBMC, six months of LAQ treatment
  Fold-Change (4.0 vs. 0.0): −1.092
Gene PRLH, after six months of LAQ
  Fold-Change (4.0 vs. 0.0): −1.262
Gene PROX1
  Fold-Change (4.0 vs. 0.0): −1.194
Gene PRRG3, after six months of LAQ
  Fold-Change (4.0 vs. 0.0): −1.258
Gene PRRX2, six months of treatment
  Fold-Change (4.0 vs. 0.0): −1.147
Gene PRSS2, after six months of LAQ
  Fold-Change (4.0 vs. 0.0): −1.2322
Gene PRSS3, after six months of LAQ
  Fold-Change (4.0 vs. 0.0): −1.225
Gene PRUNE2, six months of treatment
  Fold-Change (4.0 vs. 0.0): −1.157
Gene PSG1, six months of treatment
  Fold-Change (4.0 vs. 0.0): −1.152
Gene PTCRA, after six months of LAQ
  Fold-Change (4.0 vs. 0.0): −1.359
Gene PTGER1, after six months of LAQ
  Fold-Change (4.0 vs. 0.0): −1.123
Gene PTGER3, six months of treatment
  Fold-Change (4.0 vs. 0.0): −1.146
Gene PTH, PBMC, six months of LAQ treatment
  Fold-Change (4.0 vs. 0.0): −1.105
Gene PTHLH, PBMC, six months of LAQ treatment
  Fold-Change (4.0 vs. 0.0): −1.1157
Gene PTN, PBMC, six months of LAQ treatment
  Fold-Change (4.0 vs. 0.0): −1.115
Gene PTN, six months of treatment
  Fold-Change (4.0 vs. 0.0): −1.158
Gene PTPRF, after six months of LAQ
  Fold-Change (4.0 vs. 0.0): −1.127
Gene PTPRF, six months of treatment
  Fold-Change (4.0 vs. 0.0): −1.158
Gene PVRL2, after six months of LAQ
  Fold-Change (4.0 vs. 0.0): −1.272
Gene PVT1
  Fold-Change (4.0 vs. 0.0): −1.188
Gene PXN, after six months of LAQ
  Fold-Change (4.0 vs. 0.0): −1.248
Gene RAB6B, after six months of LAQ
  Fold-Change (4.0 vs. 0.0): −1.376
Gene RAB17, after six months of LAQ
  Fold-Change (4.0 vs. 0.0): −1.24
Gene RAD54L, PBMC, six months of LAQ treatment
  Fold-Change (4.0 vs. 0.0): −1.109
Gene RAG2, after six months of LAQ
  Fold-Change (4.0 vs. 0.0): −1.138
Gene RAMP3, after six months of LAQ
  Fold-Change (4.0 vs. 0.0): −1.368
Gene RAP1GAP, after six months of LAQ
  Fold-Change (4.0 vs. 0.0): −1.14
Gene RAPGEF4, after six months of LAQ
  Fold-Change (4.0 vs. 0.0): −1.129
Gene RAPGEF5
  Fold-Change (4.0 vs. 0.0): −1.188
Gene RAPSN, after six months of LAQ
  Fold-Change (4.0 vs. 0.0): −1.266
Gene RASL11B, after six months of LAQ
  Fold-Change (4.0 vs. 0.0): −1.1329
Gene RASL12, six months of treatment
  Fold-Change (4.0 vs. 0.0): −1.149
Gene RAX, after six months of LAQ
  Fold-Change (4.0 vs. 0.0): −1.25
Gene RBBP9
  Fold-Change (4.0 vs. 0.0): −1.192
Gene RBM12B, PBMC, six months of LAQ treatment
  Fold-Change (4.0 vs. 0.0): −1.116
Gene RBM15B, after six months of LAQ
  Fold-Change (4.0 vs. 0.0): −1.141
Gene RBM26, six months of treatment
  Fold-Change (4.0 vs. 0.0): −1.16
Gene RECQL5
  Fold-Change (4.0 vs. 0.0): −1.194
Gene RGS4, six months of treatment
  Fold-Change (4.0 vs. 0.0): −1.15
Gene RHAG, after six months of LAQ
  Fold-Change (4.0 vs. 0.0): −1.1352
Gene RHBDD3, six months of treatment
  Fold-Change (4.0 vs. 0.0): −1.16
Gene RHD, after six months of LAQ
  Fold-Change (4.0 vs. 0.0): −1.276
Gene RIBC2, after six months of LAQ
  Fold-Change (4.0 vs. 0.0): −1.24
Gene RIOK3, after six months of LAQ
  Fold-Change (4.0 vs. 0.0): −1.265
Gene RIPK2, after six months of LAQ
  Fold-Change (4.0 vs. 0.0): −1.369
Gene RLINX1, after six months of LAQ
  Fold-Change (4.0 vs. 0.0): −1.243
Gene RNF17, six months of treatment
  Fold-Change (4.0 vs. 0.0): −1.15
Gene RP11-35N6.1, after six months of LAQ
  Fold-Change (4.0 vs. 0.0): −1.129
Gene RP11-257K9.7, six months of treatment
  Fold-Change (4.0 vs. 0.0): −1.159
Gene RPE65, after six months of LAQ
  Fold-Change (4.0 vs. 0.0): −1.131
Gene RTEL1, six months of treatment
  Fold-Change (4.0 vs. 0.0): −1.147
Gene RTN2, after six months of LAQ
  Fold-Change (4.0 vs. 0.0): −1.268
Gene RUNX1, after six months of LAQ
  Fold-Change (4.0 vs. 0.0): −1.133
Gene RXRG, six months of treatment
  Fold-Change (4.0 vs. 0.0): −1.148
Gene S1PR2, after six months of LAQ
  Fold-Change (4.0 vs. 0.0): −1.14
Gene SAMD14, after six months of LAQ
  Fold-Change (4.0 vs. 0.0): −1.293
Gene SASH1, PBMC, six months of LAQ treatment
  Fold-Change (4.0 vs. 0.0): 1.644 and 2.013
Gene SCML2, after six months of LAQ
  Fold-Change (4.0 vs. 0.0): −1.239
Gene SCN11A, after six months of LAQ
  Fold-Change (4.0 vs. 0.0): −1.124
Gene SDHB, after six months of LAQ
  Fold-Change (4.0 vs. 0.0): −1.253
Gene SEMA3E, six months of treatment
  Fold-Change (4.0 vs. 0.0): −1.153
Gene SEMA3F, after six months of LAQ
  Fold-Change (4.0 vs. 0.0): −1.14
Gene SEMA6A, after six months of LAQ
  Fold-Change (4.0 vs. 0.0): −1.235
Gene SERPINA3, six months of treatment
  Fold-Change (4.0 vs. 0.0): −1.16
Gene SERPINA6, after six months of LAQ
  Fold-Change (4.0 vs. 0.0): −1.123
Gene SEZ6L2, six months of treatment
  Fold-Change (4.0 vs. 0.0): −1.144
Gene SHOX2, after six months of LAQ
  Fold-Change (4.0 vs. 0.0): −1.14
Gene SHROOM2, after six months of LAQ
  Fold-Change (4.0 vs. 0.0): −1.225
